Assay results: PMC4963039
No constants are given. Whether binding was seen depends on the method and setting. In cells and extracts the contact can be indirect. Some entries that bind do so weakly or less than the wild type.

Amino acid sequences for entries named in this document (tags omitted). Residues count along the entry.
UniProt Q14114, residues 33-963: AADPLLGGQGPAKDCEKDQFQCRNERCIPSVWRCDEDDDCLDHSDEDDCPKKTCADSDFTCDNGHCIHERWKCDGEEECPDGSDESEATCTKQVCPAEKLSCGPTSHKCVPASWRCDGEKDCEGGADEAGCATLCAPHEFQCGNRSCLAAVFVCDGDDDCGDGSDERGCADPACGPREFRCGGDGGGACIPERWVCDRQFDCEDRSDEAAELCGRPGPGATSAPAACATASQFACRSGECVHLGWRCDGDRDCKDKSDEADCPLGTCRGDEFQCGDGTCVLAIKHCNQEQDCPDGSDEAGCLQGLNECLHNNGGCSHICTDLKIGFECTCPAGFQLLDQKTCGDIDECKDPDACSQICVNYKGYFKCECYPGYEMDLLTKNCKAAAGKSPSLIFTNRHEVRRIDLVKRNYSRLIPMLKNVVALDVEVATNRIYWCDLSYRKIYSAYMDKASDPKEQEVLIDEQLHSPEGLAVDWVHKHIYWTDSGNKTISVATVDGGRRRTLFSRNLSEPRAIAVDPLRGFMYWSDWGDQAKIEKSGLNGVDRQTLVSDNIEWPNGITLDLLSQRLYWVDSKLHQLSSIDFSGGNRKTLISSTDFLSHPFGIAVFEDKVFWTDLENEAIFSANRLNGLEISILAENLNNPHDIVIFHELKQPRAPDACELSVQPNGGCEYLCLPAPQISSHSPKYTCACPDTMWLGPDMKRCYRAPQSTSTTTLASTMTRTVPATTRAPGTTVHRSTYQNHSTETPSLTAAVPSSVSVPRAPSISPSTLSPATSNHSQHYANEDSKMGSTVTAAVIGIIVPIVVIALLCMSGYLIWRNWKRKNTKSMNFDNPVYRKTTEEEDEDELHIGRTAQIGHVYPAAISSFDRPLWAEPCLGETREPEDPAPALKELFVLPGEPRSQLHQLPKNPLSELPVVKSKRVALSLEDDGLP
UniProt P02749, residues 20-345: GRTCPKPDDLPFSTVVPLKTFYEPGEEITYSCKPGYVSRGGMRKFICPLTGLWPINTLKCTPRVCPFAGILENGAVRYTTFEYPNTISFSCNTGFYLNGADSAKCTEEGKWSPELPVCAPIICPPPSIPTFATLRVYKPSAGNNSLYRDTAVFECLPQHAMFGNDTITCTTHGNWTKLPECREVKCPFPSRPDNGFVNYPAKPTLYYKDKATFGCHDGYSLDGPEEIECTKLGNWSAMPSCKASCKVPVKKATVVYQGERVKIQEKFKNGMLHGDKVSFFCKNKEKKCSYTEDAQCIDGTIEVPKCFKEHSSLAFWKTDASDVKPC

Assays:
[1] = biological target: apolipoprotein E receptor 2 (human (endogenous in HAEC)) (UniProt Q14114); assay: condition: only cells treated with control IgG or 1N11 alone, without the inducing antibody 3F8; co-IP + cross-linking; as a1, but cells treated with control IgG (C44) or 1N11 alone, without 3F8 or aPL
[2] = biological target: apolipoprotein E receptor 2 (human (endogenous in HAEC)) (UniProt Q14114); assay: condition: only with 1N11 (200 μg/ml) added to 3F8 (1 μg/ml); co-IP + cross-linking; as a1, cells treated with 3F8 (1 μg/ml) with 1N11 added (200 μg/ml)
[3] = biological target: apolipoprotein E receptor 2 (human (endogenous in HAEC)) (UniProt Q14114); assay: co-IP + cross-linking; HAEC treated with the anti-β2-GPI mAb 3F8 (1 μg/ml) or polyclonal aPL (100 μg/ml), DTSSP cross-linker 1.5 mM 30 min RT, lysate, ApoER2 immunoprecipitated (anti-ApoER2 polyclonal, protein A/G agarose, 2 h, 4°C), β2-GPI detected by immunoblot with mAb 2aG4

binding [1]: no binding
binding [2]: no binding
binding [3]: binds
Substance: β2-glycoprotein I (from UniProt P02749 20-345)
